Measured values as given in article PMC5123050.
Construct, isoform or probe ends are uncertain for at least one entry. For some of these results: A negative result means that nothing was seen under these conditions. For some of these results: At least one verdict rests on a figure or table, not on a statement of the authors. For some of these results: A weaker result is weaker than the reference pair of the same experiment.

Experiments:
Assay in all cases: EMSA
[1] = tested on: RNA polymerase (RNAP), 13 subunits (Sulfolobus solfataricus (Sso), strain M16:pSVA158); settings: PIC EMSA: 10 mM MOPS pH 6.5, 10 mM MgCl2, 260 mM NaCl, 5 mM DTT, 10% glycerol, 0.067 mg/ml BSA, 20 ug/ml heparin, 65 C 5 min, 4-12% native PAGE, native protein
[2] = tested on: RNA polymerase (RNAP), 13 subunits + TBP (TATA-binding protein) + TFB (transcription factor B) + TFEalpha/beta; settings: PIC EMSA: 10 mM MOPS pH 6.5, 10 mM MgCl2, 260 mM NaCl, 5 mM DTT, 10% glycerol, 0.067 mg/ml BSA, 20 ug/ml heparin, 65 C 5 min, 4-12% native PAGE, label: 32P
[3] = tested on: RNA polymerase (RNAP), 13 subunits + TBP (TATA-binding protein) + TFB (transcription factor B); settings: PIC EMSA: 10 mM MOPS pH 6.5, 10 mM MgCl2, 260 mM NaCl, 5 mM DTT, 10% glycerol, 0.067 mg/ml BSA, 20 ug/ml heparin, 65 C 5 min, 4-12% native PAGE, label: 32P

Row | Sequence | binding result ([1]; no RNA, TEC strictly dependent on the RNA component) | binding result ([1]; no TBP and TFB, RNAP recruitment strictly dependent on both, label: 32P) | binding result ([2]; 0.5 uM TFE, supershift of minimal PIC) | binding result ([2]; with RIP (100-800 nM), lower RIP:RNAP ratio needed than without TFE) | binding result ([3]; 50 nM RNAP, 1 uM TBP, 0.125 uM TFB, 7.8 nM DNA, heparin) | binding result ([3]; RIP added after PIC formation, significant PIC fraction left at 16-fold excess RIP) | binding result ([3]; RIP pre-incubated with RNAP, PIC almost gone at 8-fold molar excess RIP)
1 | CCGGCAGTACTAGTAATGACCAGGCGTAACTACTTCATCTTAACTACTCTAATGGATCTCCCATATGGTGGAGGTAAGGGTGG / CCACCCTTACCTCCACCATATGGGAGATCCATTAGAGTAGTTAAGATGAAGTAGTTACGCCTGCTCATTACTAGTACTGCCGG [elongation scaffold without RNA] | no binding | – | – | – | – | – | –
2 | GATTGATAGAGTAAAGTTTAAATACTTATATAGATAGAGTATAGATAGAGGGTTCAAAAAATGGTT / AACCATTTTTTGAACCCTCTGCTCATACTCTATCTATATAAGTATTTAAACTTTACTCTATCAATC [SSV1 T6 promoter, pre-melted -4/-1] | – | no binding | binds | binds more weakly | binds | binds more weakly | binds more weakly
